Measurements from patent publication US20200147235A1.
These are yes or no findings as the source states them, for the method shown. Some binding calls cover weakened binding; strength is not graded here.

Each binder was assayed against Human CD98 (human) (assay: hybridoma screening: ELISA on CD98-ECD, flow cytometry on CD98-expressing cells).

Binder	binding
Anti-CD98 rat hybridoma antibody Ab6 (antibody, V domains shown) VH: QVQLKESGPGLAQPSQTLSLTCTVSGFSLSTYGVIWLRQPPGKGLEWMGVIWTNGNTNYNSTLKSRLSISRDTSESQVYLQMNSLQTEDTATYYCARHYYDGAYYYGYFDYWGQGVMVTVSS VL: DIVMTQTPSSQAVSAGEKVTMSCKSSQSLLYSENKKNYLAWYQQKPGQSPKLLIYWASTRESGVPDRFIGSGSGTDFTLTISSVQAEDLAVYYCQQYYYFPYTFGAGTKLELK	binds
Anti-CD98 rat hybridoma antibody Ab7 (antibody, V domains shown) VH: QVQLKESGPGLVQPSQTLSLTCTVSGFSLSTYGVIWVRQPPGKGLEWMGVIWANGNTNYNSTLKSRLSISRDTSKSQVYLKMNSLQTEDTATYYCARHYYDGTYYYGYFDYWGQGVMVTVSS VL: DIVMTQTPSSQAVSAGEKVTMNCKSSQSLLYSENKKNYLAWYQQKPGQSPKLLIYWASTRESGVPDRFIGSGSGTDFTLTISSVQAEDLAVYYCQQYYYFPYTFGPGTKLELK	binds
Anti-CD98 rat hybridoma antibody Ab11 (antibody, V domains shown) VH: EVQLVESGGGLVQPGRSLKLSCAASGFTFSDYAMAWVRQAPKKGLEWVAGIIYDGRGTYYRDSVKGRFTISRDNAKSTLYLQMDSLRSEDTATYYCARQGDGTYYYWGYFDYWGQGVMVTVSS VL: DIVMTQSPSSLAVSAGETVTINCRSSQSLLSSGNQKNYLAWYQQKPGQSPKLLIYWASTRQSGVPDRFIGSGSGTDFTLTISSVQAEDLAIYYCQQYYDTPYTFGAGTKLELK	binds
Anti-CD98 rat hybridoma antibody Ab15 (antibody, V domains shown) VH: EVQLVESGGGLVQPGRSLKLSCAASGFTFSDYTMAWVRQAPKKGLEWVATIIYDGRGTYYRDSVKGRFTISRDNAKSTLYLQMDSLRSEDTATYYCARQSDGTYYYWGYFDYWGQGVMVTVSS VL: DIVMTQSPSSLAVSAGETVTINCKSSQSLLFSGNQKNYLAWYQQKPGQSPKLLIYWASTRQSGVPDRFIGSGSGTDFTLTIRSVQAEDLAIYYCQQYYDSPYTFGAGTKLELK	binds
Anti-CD98 murine hybridoma antibody Ab1 (antibody, V domains shown) VH: EVKLVESGGGLVQPGGSLRLSCATSGFTFTDYYMSWVRQPPGKALEWLGFIRNPANVYTTEYSASVKGRFTISRDNSQSILYLQMNTLRAEDSATYYCARASYGNSEGWFAYWGQGTLVTVSA VL: DIVMSQSPSSLAVSVGEKVTMSCKSSQNLLYNNNQKNYLAWYQQKPGQSPKLLIYWASTRESGVPDRFTGSGSGTDFTLTISSVKAEDLAVYYCQQYYSYPRTFGGGTKLEIK	binds
Anti-CD98 murine hybridoma antibody Ab5 (antibody, V domains shown) VH: EVKLVESGGGLVQPGGSLRLSCATSGFTFTDYYMTWVRQPPGKALEWLGFIRNKANGYTTEYSASVKGRFTISRDNSLSILYLQMNTLRAEDSATYYCARASYVNSEGWFAYWGQGTLVTVSA VL: DIVMSQSPSSLAVSVGEKVTMSCKSSQSLLYSSNQKNYLAWYQQKLGQSPKLLIYWASTRESGVPDRFTGSGSGTDFTLTISSVKAEDLAVYYCQHYYSYPRTFGGGTKLEIK	binds

The remaining lines, values ahead:

binding	Binder
binds	Anti-CD98 rat hybridoma antibody Ab9 (antibody, V domains shown) VH: QVQLKESGPGLVQPSQTLSLTCAVSGFSLSNYGVIWVRQPPGKGLEWMAVIWTNGNTNYNSTLKSRLSISRDTSKSQVYLKMNSLQTEDTATYYCARHYYDGTYYYGYFDYWGQGVMVTVSS VL: DIVMTQTPSSQAVSAGEKVTMSCKSSQSLLYTENKKNYLAWYQQKPGQSPKLLIYWASTRESGVPDRFMGSGSGTDFTLTISSVQAEDLAVYYCQQYYYFPYMFGAGTKLELK
binds	Anti-CD98 rat hybridoma antibody Ab10 (antibody, V domains shown) VH: EVQLVESGGGLVQPGRSLKLSCAASGFTFSDYAMAWVRQAPKKSLEWVATIIYDGRGTYCRDSVKGRFTISRDNAKSTLYLQMDSLRSEDTATYYCARQGDGTYHYWGYFDYWGQGVMVTVSS VL: DIVMTQSPSSLAVSAGETVTINCKSSQSLLSSGNQKNYLAWYQQKPGQSPKLLIYWASTRQSGVPDRFIGSGSGTDFTLTISSVQAEDLAIYYCQQYYDTPYTFGAGTKVDLK
binds	Anti-CD98 murine hybridoma antibody Ab3 (antibody, V domains shown) VH: EVKLVESGGGLVQPGNSLRLSCATSGFTFIDYYMSWVRQSPGKALEWLGFIRNKANGYTTEYSASVKGRFTISRDNSQSILYLQMDTLRAEDSATYYCTRDRPAWFVYWGQGTLVTVSA VL: DIVMSQSPSSLAVSVGEKVTMSCKSSQSLLYSSNQKNYLAWYQQKPGQSPKLLIYWASTRESGVPDRFTGSGSGTDFTLTFSSVRAEDLAVYYCQQYYSYPYTFGGGTKLEIK
